Consider one substance from publication PMC6723090.

In this test the target is T1, synthetic CDR1 peptide … with N-terminal Biotin-[TTDS] linker (human).
T1 sequence (peptide, N-terminal Biotin-[TTDS] linker): ASGYTFTNYGLSWVR
The experiment in a line: affinity purification with mass spectrometry; biotinylated peptide (80 ug) on streptavidin magnetic beads; 5 mg homogenized pig retina in PBS, 4 °C overnight; three PBS washes; elution at pH 2.0; in-solution trypsin digestion, LC-MS/MS; biotin-labeled beads as control; n = 3; only the target purified.

No constants are given. Whether binding was seen depends on the method and setting. Binding seen in cells or lysates may run through a third protein. Here binding means that the protein was enriched with, or labelled near, the bait; the list need not be complete.

Turning to “mitochondrial serine protease HTRA2 of the porcine retina (enzyme)”, the binding entry is listed as “binds”.
